These are yes or no findings as the source states them, for the method shown. Binding seen in cells or lysates may run through a third protein. Binding calls can cover weak binding; strength is not graded here. Where a sequence is shown, tags or fusion partners need not be part of it.
Target: T1, mouse IRF3, V5-tagged (mouse) (UniProt P70671)
T1 sequence: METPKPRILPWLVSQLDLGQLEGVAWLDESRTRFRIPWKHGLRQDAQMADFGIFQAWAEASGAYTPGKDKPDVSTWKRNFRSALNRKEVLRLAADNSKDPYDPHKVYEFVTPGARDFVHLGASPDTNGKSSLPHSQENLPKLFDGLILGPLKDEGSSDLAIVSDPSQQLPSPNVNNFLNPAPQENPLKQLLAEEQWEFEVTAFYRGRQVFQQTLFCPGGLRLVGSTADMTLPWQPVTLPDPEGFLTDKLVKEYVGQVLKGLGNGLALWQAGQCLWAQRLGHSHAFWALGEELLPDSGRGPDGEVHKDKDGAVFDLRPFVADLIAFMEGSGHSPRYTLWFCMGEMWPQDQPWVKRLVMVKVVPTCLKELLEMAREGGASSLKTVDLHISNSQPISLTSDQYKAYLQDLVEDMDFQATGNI
Assay: co-IP; MEF cells transiently transfected with V5-IRF3 and FLAG-NS1; MG132 added to the culture to stabilize the substrate; IP with mouse anti-V5 antibody on protein A-Sepharose, immunoblot with mouse anti-FLAG antibody

Pneumonia Virus of Mice (PVM) nonstructural protein 1, FLAG-tagged
binding: binds
